System: T1, GABAA receptors of ganglioglioma (GG) tissue (microtransplanted human brain membranes)
T1 construct: gene GABRA1
Conditions: before IL-10; agonist; nH 1.5 ± 0.1; pH 7.4, 20-22 °C; GG patients # 8-10; n = 16

NCCCC(=O)O [GABA]
EC50: 106 ± 1.5 µM

Source: PMC9605959, “GABAA receptor function is enhanced by Interleukin-10 in human epileptogenic gangliogliomas and its effect is counteracted by Interleukin-1β” (Scientific Reports, 2022)
